This note sets out measurements from PubChem BioAssay AID248 (DTP/NCI, 2004).

The experiment concerns L1210 leukemia ip in BDF1 mice, survival T/C. The experiment is described as follows: NCI In Vivo Anticancer Drug Screen. Data for tumor model L1210 Leukemia (intraperitoneal) in B6D2F1 (BDF1) mice. The settings on record: T/C endpoint: mean survival time, higher T/C = longer survival.
The mark [1] stands for this setting: dose: 100.0 mg/kg/injection, schedule: Q04DX003 (ip), vehicle: saline.
The mark [2] stands for this setting: dose: 200.0 mg/kg/injection, schedule: Q04DX003 (ip), vehicle: saline.
[3] abbreviates: dose: 100.0 mg/kg/injection, schedule: Q01DX001 (ip), vehicle: saline.
[4] abbreviates: dose: 200.0 mg/kg/injection, schedule: Q01DX001 (ip), vehicle: saline.
Setting [5] is: dose: 100.0 mg/kg/injection, schedule: Q01DX009 (ip), vehicle: Klucel (hydroxypropylcellulose) (HPC).
Where [6] appears, read: dose: 100.0 mg/kg/injection, schedule: Q04DX002 (ip), vehicle: Klucel (hydroxypropylcellulose) (HPC).
The mark [7] stands for this setting: dose: 200.0 mg/kg/injection, schedule: Q01DX009 (ip), vehicle: Klucel (hydroxypropylcellulose) (HPC).
Setting [8] is: dose: 200.0 mg/kg/injection, schedule: Q04DX002 (ip), vehicle: Klucel (hydroxypropylcellulose) (HPC).
Where [9] appears, read: dose: 400.0 mg/kg/injection, schedule: Q04DX002 (ip), vehicle: Klucel (hydroxypropylcellulose) (HPC).
Setting [10] is: dose: 100.0 mg/kg/injection, schedule: Q04DX003 (ip), vehicle: Klucel (hydroxypropylcellulose) (HPC).
[11] abbreviates: dose: 400.0 mg/kg/injection, schedule: Q01DX001 (ip), vehicle: saline.

The list is a part of this screen's results and no random one: it gathers some chemical classes. Not every dose and run of a compound is shown. T/C gives the treated animals as a percentage of the vehicle group. Some entries give survivors of the animals treated and no T/C: the source files T/C as zero there, which appears to mark a toxic dose or a test without result, not a measured value. Some doses without a T/C left all or most animals alive at the check, yet need not have been tolerated: the source hardly ever lists a survival T/C far under the control, and the zero likely stands for such cases as well. Survivors were counted at the toxicity check, usually on the fifth day, unless a day is given; later deaths do not show. Schedules are NCI's codes, read here as Q, the interval in days (D) or hours (H), X, the number of doses. Where survival is the endpoint, the PubChem record calls one and a half times the control and up active, and a quarter to a half above the control has no call in these data; cut-offs in other NCI protocols can differ. Some T/C values are followed by the survivors on the day toxicity was checked, most often the fifth; where neither a count nor a note follows, no animal had died by that day. Some doses were run more than once; the results are listed from low to high. Some schedule codes hold Z or #, which are not explained here. Some T/C values are marked as having no survivor count here; that says nothing about deaths at the dose.

For the compound `CC1(Cc2ccccc2)C[N+]12CCCCC2` (stereo not drawn), the T/C runs as follows: (dose: 12.0 mg/kg/injection, schedule: Q01DX009 (ip), vehicle: saline) 92 % of control; (dose: 12.5 mg/kg/injection, schedule: Q04DX003 (ip), vehicle: saline) 94 % of control; (dose: 25.0 mg/kg/injection, schedule: Q01DX009 (ip), vehicle: saline) 103 % of control; (dose: 25.0 mg/kg/injection, schedule: Q04DX003 (ip), vehicle: saline) 103 % of control; (dose: 50.0 mg/kg/injection, schedule: Q01DX009 (ip), vehicle: saline) 116 % of control; (dose: 50.0 mg/kg/injection, schedule: Q04DX003 (ip), vehicle: saline) 105 % of control. The survivor count runs as follows: under setting [1], 0 of 6; under setting [2], 0 of 6; (dose: 400.0 mg/kg/injection, schedule: Q04DX003 (ip), vehicle: saline) 0 of 6.
`NP(=O)(NC1CCCCC1)N(CCCl)CCCl` (stereo not drawn): the T/C runs as follows: (dose: 1.25 mg/kg/injection, schedule: Q01DX Z (ip), vehicle: saline) 93 % of control; (dose: 2.5 mg/kg/injection, schedule: Q01DX Z (ip), vehicle: saline) 87 % of control; (dose: 5.0 mg/kg/injection, schedule: Q01DX Z (ip), vehicle: saline) 95 % of control; (dose: 10.0 mg/kg/injection, schedule: Q01DX Z (ip), vehicle: other) 105 % of control; (dose: 10.0 mg/kg/injection, schedule: Q01DX Z (ip), vehicle: saline) 90 % of control; (dose: 30.0 mg/kg/injection, schedule: Q01DX Z (ip), vehicle: other) 93 % of control [5 of 6 alive]. In addition, the T/C runs as follows: (dose: 100.0 mg/kg/injection, schedule: Q01DX Z (ip), vehicle: other) 92 % of control; (dose: 300.0 mg/kg/injection, schedule: Q01DX Z (ip), vehicle: other) 94 % of control.
Take `[N-]=[N+]=NC(=N)N`: the T/C was 102 % of control [survivor count not shown] under setting [3] and 111 % of control [survivor count not shown] under setting [4].
For `O=[N+]([O-])c1cccc(SC2CCCCC2Cl)c1` (stereo not drawn), the T/C by setting is: under setting [5], 100 % of control; under setting [6], 97 % of control; under setting [7], 100 % of control; under setting [8], 100 % of control; (dose: 400.0 mg/kg/injection, schedule: Q01DX009 (ip), vehicle: Klucel (hydroxypropylcellulose) (HPC)) 100 % of control; under setting [9], 107 % of control.
Consider `O=[N+]([O-])c1cc([N+](=O)[O-])c(/C=C/c2ccccc2)c([N+](=O)[O-])c1`, for which the T/C is 95 % of control (dose: 25.0 mg/kg/injection, schedule: Q01DX009 (ip), vehicle: gum acacia); 91 % of control (dose: 25.0 mg/kg/injection, schedule: Q04DX003 (ip), vehicle: Klucel (hydroxypropylcellulose) (HPC)); 95 % of control (dose: 50.0 mg/kg/injection, schedule: Q01DX009 (ip), vehicle: gum acacia); 97 % of control (dose: 50.0 mg/kg/injection, schedule: Q04DX003 (ip), vehicle: Klucel (hydroxypropylcellulose) (HPC)); 91 % of control (dose: 100.0 mg/kg/injection, schedule: Q01DX009 (ip), vehicle: gum acacia); 94 % of control under setting [10]. The T/C (dose: 400.0 mg/kg/injection, schedule: Q04DX003 (ip), vehicle: Klucel (hydroxypropylcellulose) (HPC)) was 87 % of control. Also, the survivor count is, setting by setting: under setting [10], 6 of 6; (dose: 200.0 mg/kg/injection, schedule: Q04DX003 (ip), vehicle: Klucel (hydroxypropylcellulose) (HPC)) 6 of 6.
As for `CCOP(=O)(NC1CCCCC1)OCC`, the T/C runs as follows: (dose: 50.0 mg/kg/injection, schedule: Q01DX009 (ip), vehicle: Klucel (hydroxypropylcellulose) (HPC)) 94 % of control; under setting [5], 87 % of control; (dose: 100.0 mg/kg/injection, schedule: Q04DX003 (ip), vehicle: saline with Tween-80) 95 % of control; under setting [7], 97 % of control; (dose: 200.0 mg/kg/injection, schedule: Q04DX003 (ip), vehicle: saline with Tween-80) 98 % of control. For the same compound, for the setting “dose: 400.0 mg/kg/injection, schedule: Q04DX003 (ip), vehicle: saline with Tween-80”, the survivor count is reported as 2 of 6.
As to `C[CH2][Sn]([C]#N)([CH2]C)[CH2]C`, the T/C (dose: 3.12 mg/kg/injection, schedule: Q04DX002 (ip), vehicle: saline with Tween-80) was 96 % of control; the T/C (dose: 6.25 mg/kg/injection, schedule: Q04DX002 (ip), vehicle: saline with Tween-80) is 101 % of control; the T/C (dose: 12.5 mg/kg/injection, schedule: Q04DX002 (ip), vehicle: saline with Tween-80) is 90 [2 of 3 alive] and 111 % of control. In addition, the survivor count is 0 of 3 (dose: 25.0 mg/kg/injection, schedule: Q04DX002 (ip), vehicle: saline with Tween-80); 0 of 3 (dose: 50.0 mg/kg/injection, schedule: Q04DX002 (ip), vehicle: saline with Tween-80); 0 of 3 under setting [6]; 0 of 3 under setting [8]; 0 of 3 under setting [9].
In the case of `O=[N+]([O-])c1cc([N+](=O)[O-])c(C(F)(F)F)cc1Nc1cc(C(F)(F)F)c([N+](=O)[O-])cc1[N+](=O)[O-]`, the T/C under setting [3] was 101 % of control. Besides, the survivor count is recorded as 0 of 4 under setting [4] and 1 of 4 under setting [11].
In the case of `C/C(=N\OC(C)([N+](=O)[O-])[N+](=O)[O-])[N+](=O)[O-]`, the T/C is 95 % of control [survivor count not shown] (dose: 25.0 mg/kg/injection, schedule: Q01DX009 (ip), vehicle: acetone); 95 % of control [survivor count not shown] (dose: 50.0 mg/kg/injection, schedule: Q01DX009 (ip), vehicle: acetone); 105 % of control [survivor count not shown] under setting [1]; 93 % of control [survivor count not shown] under setting [2].
As for `CC1COP(N(C)C)O1` (stereo not drawn), the T/C under setting [3] was 101 % of control, the T/C under setting [4] was 97 % of control and the T/C under setting [11] is 92 % of control.
